Article PMC10966776
No constants are given. Whether binding was seen depends on the method and setting. In cells and extracts the contact can be indirect. Binding calls can cover weak binding; strength is not graded here.

Protein sequences, listed by entry. Tags and fused reporters are not part of them. Lines headed by an entry give the natural chain unless they say otherwise; changes in a name come on top.
UniProt Q8TDZ2: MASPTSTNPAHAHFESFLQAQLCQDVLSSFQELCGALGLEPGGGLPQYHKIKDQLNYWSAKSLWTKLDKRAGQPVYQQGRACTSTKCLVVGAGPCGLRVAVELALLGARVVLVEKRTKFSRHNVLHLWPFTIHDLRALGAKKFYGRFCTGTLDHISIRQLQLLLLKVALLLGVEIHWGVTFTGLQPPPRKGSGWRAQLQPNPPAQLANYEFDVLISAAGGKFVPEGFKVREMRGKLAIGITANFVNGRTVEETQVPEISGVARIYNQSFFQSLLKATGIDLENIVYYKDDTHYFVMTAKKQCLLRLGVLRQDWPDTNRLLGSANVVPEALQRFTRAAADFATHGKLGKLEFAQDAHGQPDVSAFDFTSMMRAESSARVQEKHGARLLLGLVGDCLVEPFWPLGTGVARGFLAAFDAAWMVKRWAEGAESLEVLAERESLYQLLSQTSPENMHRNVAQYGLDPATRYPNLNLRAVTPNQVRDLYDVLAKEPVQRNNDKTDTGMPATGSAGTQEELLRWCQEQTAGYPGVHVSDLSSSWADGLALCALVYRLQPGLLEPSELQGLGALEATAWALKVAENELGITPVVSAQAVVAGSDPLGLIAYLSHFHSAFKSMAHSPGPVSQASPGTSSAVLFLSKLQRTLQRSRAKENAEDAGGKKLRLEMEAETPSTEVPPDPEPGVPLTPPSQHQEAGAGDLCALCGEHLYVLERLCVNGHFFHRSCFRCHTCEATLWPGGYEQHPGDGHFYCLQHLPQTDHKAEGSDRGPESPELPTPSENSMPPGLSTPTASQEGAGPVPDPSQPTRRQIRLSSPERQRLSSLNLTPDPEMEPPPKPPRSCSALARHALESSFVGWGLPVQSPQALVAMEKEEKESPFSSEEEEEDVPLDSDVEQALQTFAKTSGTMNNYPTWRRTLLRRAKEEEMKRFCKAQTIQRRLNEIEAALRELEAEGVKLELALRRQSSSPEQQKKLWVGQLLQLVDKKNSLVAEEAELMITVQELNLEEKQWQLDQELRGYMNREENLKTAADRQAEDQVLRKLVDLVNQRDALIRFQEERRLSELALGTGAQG
UniProt Q15286: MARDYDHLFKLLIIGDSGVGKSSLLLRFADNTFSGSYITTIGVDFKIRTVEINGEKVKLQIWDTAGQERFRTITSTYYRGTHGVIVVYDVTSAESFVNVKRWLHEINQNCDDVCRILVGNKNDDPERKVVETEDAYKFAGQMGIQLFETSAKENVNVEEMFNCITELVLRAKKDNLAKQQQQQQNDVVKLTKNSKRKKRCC
UniProt Q8TEH3: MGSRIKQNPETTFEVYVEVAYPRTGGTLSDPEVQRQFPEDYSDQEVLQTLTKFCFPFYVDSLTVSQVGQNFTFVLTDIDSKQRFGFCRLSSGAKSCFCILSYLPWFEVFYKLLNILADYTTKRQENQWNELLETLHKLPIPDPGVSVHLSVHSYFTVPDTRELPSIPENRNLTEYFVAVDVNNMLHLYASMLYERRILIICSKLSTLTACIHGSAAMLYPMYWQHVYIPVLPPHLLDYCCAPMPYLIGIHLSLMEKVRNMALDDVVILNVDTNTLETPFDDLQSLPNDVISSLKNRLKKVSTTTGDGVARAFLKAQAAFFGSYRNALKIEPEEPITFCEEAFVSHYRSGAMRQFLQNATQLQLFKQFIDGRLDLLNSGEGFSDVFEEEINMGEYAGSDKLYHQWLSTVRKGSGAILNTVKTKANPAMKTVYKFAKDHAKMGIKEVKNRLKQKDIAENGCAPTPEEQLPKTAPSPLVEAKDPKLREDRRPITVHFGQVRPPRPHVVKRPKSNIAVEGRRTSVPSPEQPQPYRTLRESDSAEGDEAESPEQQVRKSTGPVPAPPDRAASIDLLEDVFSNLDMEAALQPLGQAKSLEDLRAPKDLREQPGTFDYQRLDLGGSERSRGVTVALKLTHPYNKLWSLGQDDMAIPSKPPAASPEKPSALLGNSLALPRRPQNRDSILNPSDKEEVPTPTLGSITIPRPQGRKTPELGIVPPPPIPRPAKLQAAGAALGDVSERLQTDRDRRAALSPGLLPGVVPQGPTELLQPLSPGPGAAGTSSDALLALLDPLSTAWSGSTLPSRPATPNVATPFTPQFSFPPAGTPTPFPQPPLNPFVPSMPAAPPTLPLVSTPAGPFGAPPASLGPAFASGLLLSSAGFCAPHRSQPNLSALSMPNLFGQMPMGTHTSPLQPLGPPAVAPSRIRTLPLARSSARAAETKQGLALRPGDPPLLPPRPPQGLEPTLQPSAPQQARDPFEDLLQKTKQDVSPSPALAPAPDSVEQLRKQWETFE
UniProt Q6P3S1: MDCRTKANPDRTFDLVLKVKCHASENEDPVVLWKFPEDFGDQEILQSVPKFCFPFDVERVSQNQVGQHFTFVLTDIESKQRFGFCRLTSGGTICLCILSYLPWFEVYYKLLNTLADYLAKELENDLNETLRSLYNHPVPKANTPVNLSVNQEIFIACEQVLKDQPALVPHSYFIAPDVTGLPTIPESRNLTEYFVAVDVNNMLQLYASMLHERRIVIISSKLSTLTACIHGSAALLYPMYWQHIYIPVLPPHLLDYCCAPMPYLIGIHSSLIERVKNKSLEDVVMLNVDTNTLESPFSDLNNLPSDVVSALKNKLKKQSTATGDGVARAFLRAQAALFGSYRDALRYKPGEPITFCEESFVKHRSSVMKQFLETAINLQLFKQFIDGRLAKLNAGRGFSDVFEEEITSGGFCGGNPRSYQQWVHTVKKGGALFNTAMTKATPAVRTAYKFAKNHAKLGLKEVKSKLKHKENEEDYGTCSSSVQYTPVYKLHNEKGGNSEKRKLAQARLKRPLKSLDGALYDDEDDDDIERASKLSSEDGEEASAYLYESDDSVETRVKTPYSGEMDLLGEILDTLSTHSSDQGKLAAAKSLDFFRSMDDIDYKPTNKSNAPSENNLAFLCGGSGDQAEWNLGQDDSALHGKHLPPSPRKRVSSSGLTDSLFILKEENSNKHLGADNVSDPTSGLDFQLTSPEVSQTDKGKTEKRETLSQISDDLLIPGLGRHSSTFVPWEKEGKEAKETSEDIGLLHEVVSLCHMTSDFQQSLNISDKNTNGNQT

Legend:
GST-MICAL1 CC domain = GST-MICAL1 CC domain (UniProt Q8TDZ2); assay: pull-down; 50 ug GST-MICAL1 CC domain precoupled to Glutathione-Sepharose beads, 1 mg HEK 293T lysate with FLAG-Rab35 wt or variants; 50 mM Tris-HCl pH 7.4, 100 mM NaCl2, 5 mM MgCl2, 0.5% Triton X-100, 0.25% deoxycholate, 0.05% SDS, 5% glycerol; 1 h at 4 °C; anti-FLAG immunoblot; only the target purified
GST-Rab35 Q67L (human) = GST-Rab35 Q67L (human) (UniProt Q15286); assay: pull-down; 50 ug GST-Rab35 (wt, R27H, Q67L or S22N) precoupled to Glutathione-Sepharose beads, 1 mg HEK 293T lysate with FLAG-CD1 or FLAG-CD2 DENN domain; 20 mM Hepes, 100 mM NaCl2, 5 mM MgCl2, 1% Triton X-100; 1 h at 4 °C; anti-FLAG immunoblot; only the target purified
GST-Rab35 wt (human) = GST-Rab35 wt (human) (UniProt Q15286); assay: as above
GST-Rab35 S22N (human) = GST-Rab35 S22N (human) (UniProt Q15286); assay: as above

For “FLAG-Rab35 Q67L (from UniProt Q15286-1 1-201)”, the binding (GST-MICAL1 CC domain) was “binds”.
In the case of “FLAG-Rab35 S22N (from UniProt Q15286-1 1-201)”, the binding (GST-MICAL1 CC domain) is reported as “no binding”.
“FLAG-Rab35 wt (from UniProt Q15286-1 1-201)” was tested, and the binding (GST-MICAL1 CC domain) was “binds”.
In the case of “FLAG-connecdenn 1 (CD1) DENN domain (from UniProt Q8TEH3) (domain or fragment)”, the binding (GST-Rab35 Q67L (human)) is reported as “binds weakly”, the binding (GST-Rab35 wt (human)) is reported as “binds weakly” and the binding (GST-Rab35 S22N (human)) is reported as “binds”.
For “FLAG-connecdenn 2 (CD2) DENN domain (from UniProt Q6P3S1) (domain or fragment)”, the binding (GST-Rab35 Q67L (human)) was “binds weakly”, the binding (GST-Rab35 wt (human)) was “binds weakly” and the binding (GST-Rab35 S22N (human)) was “binds”.
